According to article PMC6928761, “Trypanocidal Mechanism of Action and in silico Studies of p-Coumaric Acid Derivatives” (International Journal of Molecular Sciences, 2019):

What was measured:
[1] = test system: T. cruzi (strain Y) trypomastigotes; assay: Effect on T. cruzi trypomastigote forms (24 h); format: cell-based, Trypanosoma cruzi; settings: selectivity index vs LLC-MK2
Experimental: (§1) The trypanocidal activity of the p-coumaric derivatives (1–12) were evaluated against epimastigotes and trypomastigote forms of T. cruzi (strain Y) at 24 h of incubation and in host LLC-MK2 cells at 24 h of exposure to different concentrations: 100; 50; 25; 12.5; 6.25; 3.12; and 1.56 μg/mL. In the MTT assay it was possible to calculate the IC50 of the tested substances through cell viability, which was calculated in relation to the negative control, whose absorbance was considered 100%.
Acquisition of T. cruzi trypomastigotes was by infection of LLCMK2 cells using trypomastigotes in T-25/75cm^2 containers at 37 °C with 5% CO2 atmosphere in DMEM (Vitrocell, São Paulo, Brazil) and supplementation of 1% antibiotics and 2% SFB for 24 h. Then the trypomastigotes were plated and treated with p-coumaric acid derivatives. Cell viability was counted after 24 h of incubation at 37 °C. LC50 was obtained. While relative cell viability was calculated using sterile PBS-treated cells for both negative controls and experiments, all in triplicate.

[2] = test system: T. cruzi (strain Y) epimastigotes; assay: Effect on T. cruzi epimastigote forms (24 h, Neubauer chamber count); format: cell-based, Trypanosoma cruzi; settings: selectivity index vs LLC-MK2
Experimental: as §1
Preparation of T. cruzi epimastigote was performed by cultivation in 96-well Y-staining plates at a density of 10^6 cells/mL, and using liver tryptose infusion with 10% fetal bovine serum (SFB) supplementation, and 1% antibiotic. They were then treated with p-coumaric derivatives. The grown parasites presenting inhibition were collected and quantified in a Neubauer chamber after incubation at 28 °C for 24 h. To determine relative viability, parasites treated only with sterile PBS medium were used as negative controls (viability of 100%), and experiments were performed in triplicate.

SMILES	Y strain (Tripomastigotes) SI [1]	Y strain (Epimastigotes) SI [2]
CCCOC(=O)/C=C/c1ccc(O)cc1 [compound 3, Propyl p-coumarate]	3.8	26.55
CCCCCOC(=O)/C=C/c1ccc(O)cc1 [compound 7, pentyl p-coumarate]	2	23.86
CC(C)CCOC(=O)/C=C/c1ccc(O)cc1 [compound 8, isopentyl p-coumarate]	1.08	9.1
